This data set concerns IR-induced senescent cells (IR-SC WI-38). Briefly: Cell viability of IR-induced senescent WI-38 cells after 72 hours of compound treatment. Type of data set: cell-based. The following applies: SI not defined; values match EC50 normal WI-38 / EC50 IR-SC WI-38. The method, then:
Normal WI-38 cells and IR-induced senescent cells were incubated with increasing concentrations of compounds of Formula (I). At 72 hours post-treatment cell viability was measured and ED50was calculated. Table 1 depicts the ED50 values of the compounds of Formula (I) against normal and IR-induced senescent cells.
For `COc1ccc(/C=C/C(=O)N2CCC=C(Br)C2=O)cc1` [No 9], the SI worked out at 1.7.

Consider `O=C1C(Br)=CCCN1S(=O)(=O)/C=C/c1ccccc1` [No 16], for which the SI was 10.

Take `COc1ccc(/C=C/C(=O)N2CCCC=C(Cl)C2=O)cc1` [No 10]: the SI is listed as 9.4.

As to `COc1ccc(/C=C/C(=O)N2CCC=C(Cl)C2=O)cc1` [No 8], the SI is reported as 0.7.

Consider `O=C1C(Br)=CCCCN1C(=O)c1cc2ccccc2oc1=O` [No 14], for which the SI is listed as 1.3.

For `O=C1C(Cl)=CCCN1S(=O)(=O)/C=C/c1ccccc1` [No 15], the SI is 9.4.

On to `COc1cc(/C=C/C(=O)N2CCCC=C(Br)C2=O)cc(OC)c1OC` [No 6], for which the SI amounted to 6.4.

In turn, `COc1cc(/C=C/C(=O)N2CCC=C(F)C2=O)cc(OC)c1OC` [No 1] had an SI of 0.8.

As to `COc1cc(/C=C/C(=O)N2CCCC=C(Cl)C2=O)cc(OC)c1OC` [No 5], the SI is listed as 3.8.

Regarding `O=C1C(Br)=CCCN1C(=O)c1cc2ccccc2oc1=O` [No 13], the SI worked out at 3.6.

For `C=CC(=O)N1OCC=CC1=O` [No 12], the SI is 2.9.

`COc1cc(/C=C/C(=O)N2CCC=C(Cl)C2=O)cc(OC)c1OC` [No 2] yielded an SI of 8.2.

On to `COc1cc(/C=C/C(=O)N2OCC=CC2=O)cc(OC)c1OC` [No 7], for which the SI is 6.0.

Take `COc1cc(/C=C/C(=O)N2CCC=C(Br)C2=O)cc(OC)c1OC` [No 3]: the SI was determined as 10.4.

Consider `COc1cc(/C=C/C(=O)N2CCC=C(I)C2=O)cc(OC)c1OC` [No 4], for which the SI was 8.0.

The compound `COc1ccc(/C=C/C(=O)N2CCCC=C(Br)C2=O)cc1` [No 11] showed an SI of 4.5.

These data come from patent US12084423B2, “Piperlongumine analogues and uses thereof” (BioVentures, LLC, priority 2018, dated 2024).
